Reference: US20250304575A1, “COMPOUNDS AND PHARMACEUTICAL COMPOSITIONS THEREOF FOR THE TREATMENT OF NEURODEGENERATIVE DISORDERS” (Galapagos NV, priority 2022, published 2025)

System: Aβ1-42-injected mice (short-term spatial memory)
Experiment: Alzheimer's disease mouse model using intrahippocampal injection of oligomers of amyloid beta; forced alternation Y-maze test
Format: in vivo, C57BL6 mice
Details: Aβ1-42 (2 μL/side, 100 μM) injected mice, n = 12; daily treatment; Compounds 5 mg/kg p.o., Donepezil 1 mg/kg i.p.; group mean; Aβ1-42 + vehicle group 78.9, sham 115.5

## COc1cc2c(cc1OC)C(=O)C(CC1CCN(Cc3ccccc3)CC1)C2 (stereo not shown) [Donepezil, reference compound]
  Cumulative duration (sec) in the new arm of the Y-maze: 134.6 s
